Data source: PubChem BioAssay AID1259254 (NCATS, 2017)
Purpose: 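Genome-wide screen for genes that prevent DNA re-replication in cancer cells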 (primary screen). Cell system: human HCT116 colorectal cancer cells. Reagent: single siRNA against human genes. Timing: 3 days. Detection: 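Nuclei stained with Hoechst and imaged; cell-cycle phase assigned by DNA content; G2 share scaled per plate, non-targeting siRNA 0%, GMNN siRNA 100%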. Direction: G2 robust z-score and G2 cells, % of GMNN control: higher = more G2 cells, more excess DNA replication. Active means: 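An siRNA counts as active if its G2 robust z-score lies at least 5 MADs above the screen median; here such calls match roughly 38% of GMNN control or more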.
This is one part, drawn at random, of about 59,000 reagents. About 1,550 of them (2.6%) were called active. 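G2 share is only a proxy for re-replication; each gene was hit by three separate siRNAs, and active genes were retested.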 The numbers tell different reagents against one gene apart. Further read-outs or replicates are left out here. The record does not give: the amount of reagent.

What did the screen give for ZNF215 (GeneID 7762) #1?
G2 robust z-score: 0.0824; G2 cells, % of GMNN control: 3.55; Call: inactive

With ZNF215 (GeneID 7762) #2, what was measured?
G2 robust z-score: 0.0197; G2 cells, % of GMNN control: 3.11; Call: inactive

What is on record for ZNF215 (GeneID 7762) #3?
G2 robust z-score: 1.27; G2 cells, % of GMNN control: 11.9; Call: inactive

What did the screen give for USP53 (GeneID 54532) #1?
G2 robust z-score: -0.401; G2 cells, % of GMNN control: 0.149; Call: inactive

Which result is listed for USP53 (GeneID 54532) #2?
G2 robust z-score: 0.0163; G2 cells, % of GMNN control: 3.08; Call: inactive

What did the screen give for USP53 (GeneID 54532) #3?
G2 robust z-score: 2.79; G2 cells, % of GMNN control: 22.6; Call: inactive

For BANF1 (GeneID 8815) #1, what was measured?
G2 robust z-score: -0.266; G2 cells, % of GMNN control: 1.1; Call: inactive

For BANF1 (GeneID 8815) #2, how do the results read?
G2 robust z-score: 1.68; G2 cells, % of GMNN control: 14.8; Call: inactive

How did the screen score BANF1 (GeneID 8815) #3?
G2 robust z-score: 0.297; G2 cells, % of GMNN control: 5.06; Call: inactive

What did the screen give for SPPL2B (GeneID 56928) #1?
G2 robust z-score: 4.53; G2 cells, % of GMNN control: 34.8; Call: inactive

How did the screen score SPPL2B (GeneID 56928) #2?
G2 robust z-score: 1.16; G2 cells, % of GMNN control: 11.1; Call: inactive

For SPPL2B (GeneID 56928) #3, what was measured?
G2 robust z-score: -0.444; G2 cells, % of GMNN control: -0.154; Call: inactive

For PROSER2 (GeneID 254427) #1, what was measured?
G2 robust z-score: 0.514; G2 cells, % of GMNN control: 6.58; Call: inactive

For PROSER2 (GeneID 254427) #2, how do the results read?
G2 robust z-score: -0.0755; G2 cells, % of GMNN control: 2.44; Call: inactive

What did the screen give for PROSER2 (GeneID 254427) #3?
G2 robust z-score: -0.345; G2 cells, % of GMNN control: 0.537; Call: inactive

How did the screen score TRNP1 (GeneID 388610) #1?
G2 robust z-score: 0.165; G2 cells, % of GMNN control: 4.13; Call: inactive

For TRNP1 (GeneID 388610) #2, how do the results read?
G2 robust z-score: -0.84; G2 cells, % of GMNN control: -2.94; Call: inactive

For TRNP1 (GeneID 388610) #3, what was measured?
G2 robust z-score: 0.463; G2 cells, % of GMNN control: 6.23; Call: inactive

For MYO5C (GeneID 55930) #1, what was measured?
G2 robust z-score: 0.302; G2 cells, % of GMNN control: 5.09; Call: inactive

What is on record for MYO5C (GeneID 55930) #2?
G2 robust z-score: -1.3; G2 cells, % of GMNN control: -6.18; Call: inactive

For MYO5C (GeneID 55930) #3, what does the deposit list?
G2 robust z-score: 0.146; G2 cells, % of GMNN control: 3.99; Call: inactive

For PORCN (GeneID 64840) #1, what does the deposit list?
G2 robust z-score: 0.117; G2 cells, % of GMNN control: 3.79; Call: inactive

With PORCN (GeneID 64840) #2, what was measured?
G2 robust z-score: -1.48; G2 cells, % of GMNN control: -7.43; Call: inactive

For PORCN (GeneID 64840) #3, what does the deposit list?
G2 robust z-score: -0.645; G2 cells, % of GMNN control: -1.57; Call: inactive

No new results follow: 4 of the entries above.
PROSER2 (GeneID 254427) #3: G2 robust z-score = -0.345; G2 cells, % of GMNN control = 0.537; Call = inactive
TRNP1 (GeneID 388610) #1: G2 robust z-score = 0.165; G2 cells, % of GMNN control = 4.13; Call = inactive
TRNP1 (GeneID 388610) #2: G2 robust z-score = -0.84; G2 cells, % of GMNN control = -2.94; Call = inactive
TRNP1 (GeneID 388610) #3: G2 robust z-score = 0.463; G2 cells, % of GMNN control = 6.23; Call = inactive
